This is an account of results in the supplement of paper PMC12067093, “Discovery and optimisation of a covalent ligand for TRIM25 and its application to targeted protein ubiquitination” (Chemical Science, 2025).

Sequences of proteins named here, by UniProt entry; tags and fusion partners are left off. A change or cut given only in a name is not applied to a line headed by its entry.
UniProt Q02880: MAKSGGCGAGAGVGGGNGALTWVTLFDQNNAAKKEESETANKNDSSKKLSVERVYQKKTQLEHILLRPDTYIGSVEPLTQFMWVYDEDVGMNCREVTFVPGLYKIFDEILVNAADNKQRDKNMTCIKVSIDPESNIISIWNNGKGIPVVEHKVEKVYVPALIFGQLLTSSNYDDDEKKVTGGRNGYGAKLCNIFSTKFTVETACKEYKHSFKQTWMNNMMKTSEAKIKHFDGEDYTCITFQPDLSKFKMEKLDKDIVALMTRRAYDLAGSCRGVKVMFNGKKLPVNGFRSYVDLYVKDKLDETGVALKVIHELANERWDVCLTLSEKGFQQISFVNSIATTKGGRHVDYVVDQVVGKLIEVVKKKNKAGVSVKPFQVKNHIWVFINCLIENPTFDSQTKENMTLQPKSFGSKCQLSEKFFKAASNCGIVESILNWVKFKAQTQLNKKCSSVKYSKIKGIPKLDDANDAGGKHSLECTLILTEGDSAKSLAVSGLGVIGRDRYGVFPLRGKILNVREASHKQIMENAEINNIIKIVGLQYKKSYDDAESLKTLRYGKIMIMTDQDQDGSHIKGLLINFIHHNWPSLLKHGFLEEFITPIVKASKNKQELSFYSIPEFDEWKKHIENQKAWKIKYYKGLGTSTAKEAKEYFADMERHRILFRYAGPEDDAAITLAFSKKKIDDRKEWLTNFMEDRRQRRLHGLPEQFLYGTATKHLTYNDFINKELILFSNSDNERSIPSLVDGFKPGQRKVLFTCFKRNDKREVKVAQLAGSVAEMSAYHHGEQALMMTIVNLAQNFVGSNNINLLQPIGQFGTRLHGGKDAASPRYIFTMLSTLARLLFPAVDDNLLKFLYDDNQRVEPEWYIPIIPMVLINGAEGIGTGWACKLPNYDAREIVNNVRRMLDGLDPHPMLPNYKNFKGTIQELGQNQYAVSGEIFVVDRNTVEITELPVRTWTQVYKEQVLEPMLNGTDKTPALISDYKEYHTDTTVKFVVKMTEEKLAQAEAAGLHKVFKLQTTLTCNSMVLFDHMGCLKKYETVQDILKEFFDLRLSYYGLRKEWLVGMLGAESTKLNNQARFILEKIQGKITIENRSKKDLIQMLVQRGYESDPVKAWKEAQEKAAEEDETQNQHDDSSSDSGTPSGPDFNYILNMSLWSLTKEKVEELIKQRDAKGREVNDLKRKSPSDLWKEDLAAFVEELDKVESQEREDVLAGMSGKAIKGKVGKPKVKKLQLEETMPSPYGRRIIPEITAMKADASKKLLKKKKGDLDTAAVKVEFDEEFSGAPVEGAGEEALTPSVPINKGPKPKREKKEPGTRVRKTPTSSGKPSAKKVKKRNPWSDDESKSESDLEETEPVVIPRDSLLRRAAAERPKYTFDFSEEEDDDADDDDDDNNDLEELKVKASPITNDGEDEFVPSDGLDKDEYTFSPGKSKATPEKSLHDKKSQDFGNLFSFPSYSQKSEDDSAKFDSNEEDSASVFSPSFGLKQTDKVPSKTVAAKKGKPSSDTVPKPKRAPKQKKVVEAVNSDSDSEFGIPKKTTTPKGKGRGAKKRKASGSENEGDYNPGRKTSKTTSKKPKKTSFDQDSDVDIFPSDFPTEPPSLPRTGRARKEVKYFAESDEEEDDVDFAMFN
UniProt O15417: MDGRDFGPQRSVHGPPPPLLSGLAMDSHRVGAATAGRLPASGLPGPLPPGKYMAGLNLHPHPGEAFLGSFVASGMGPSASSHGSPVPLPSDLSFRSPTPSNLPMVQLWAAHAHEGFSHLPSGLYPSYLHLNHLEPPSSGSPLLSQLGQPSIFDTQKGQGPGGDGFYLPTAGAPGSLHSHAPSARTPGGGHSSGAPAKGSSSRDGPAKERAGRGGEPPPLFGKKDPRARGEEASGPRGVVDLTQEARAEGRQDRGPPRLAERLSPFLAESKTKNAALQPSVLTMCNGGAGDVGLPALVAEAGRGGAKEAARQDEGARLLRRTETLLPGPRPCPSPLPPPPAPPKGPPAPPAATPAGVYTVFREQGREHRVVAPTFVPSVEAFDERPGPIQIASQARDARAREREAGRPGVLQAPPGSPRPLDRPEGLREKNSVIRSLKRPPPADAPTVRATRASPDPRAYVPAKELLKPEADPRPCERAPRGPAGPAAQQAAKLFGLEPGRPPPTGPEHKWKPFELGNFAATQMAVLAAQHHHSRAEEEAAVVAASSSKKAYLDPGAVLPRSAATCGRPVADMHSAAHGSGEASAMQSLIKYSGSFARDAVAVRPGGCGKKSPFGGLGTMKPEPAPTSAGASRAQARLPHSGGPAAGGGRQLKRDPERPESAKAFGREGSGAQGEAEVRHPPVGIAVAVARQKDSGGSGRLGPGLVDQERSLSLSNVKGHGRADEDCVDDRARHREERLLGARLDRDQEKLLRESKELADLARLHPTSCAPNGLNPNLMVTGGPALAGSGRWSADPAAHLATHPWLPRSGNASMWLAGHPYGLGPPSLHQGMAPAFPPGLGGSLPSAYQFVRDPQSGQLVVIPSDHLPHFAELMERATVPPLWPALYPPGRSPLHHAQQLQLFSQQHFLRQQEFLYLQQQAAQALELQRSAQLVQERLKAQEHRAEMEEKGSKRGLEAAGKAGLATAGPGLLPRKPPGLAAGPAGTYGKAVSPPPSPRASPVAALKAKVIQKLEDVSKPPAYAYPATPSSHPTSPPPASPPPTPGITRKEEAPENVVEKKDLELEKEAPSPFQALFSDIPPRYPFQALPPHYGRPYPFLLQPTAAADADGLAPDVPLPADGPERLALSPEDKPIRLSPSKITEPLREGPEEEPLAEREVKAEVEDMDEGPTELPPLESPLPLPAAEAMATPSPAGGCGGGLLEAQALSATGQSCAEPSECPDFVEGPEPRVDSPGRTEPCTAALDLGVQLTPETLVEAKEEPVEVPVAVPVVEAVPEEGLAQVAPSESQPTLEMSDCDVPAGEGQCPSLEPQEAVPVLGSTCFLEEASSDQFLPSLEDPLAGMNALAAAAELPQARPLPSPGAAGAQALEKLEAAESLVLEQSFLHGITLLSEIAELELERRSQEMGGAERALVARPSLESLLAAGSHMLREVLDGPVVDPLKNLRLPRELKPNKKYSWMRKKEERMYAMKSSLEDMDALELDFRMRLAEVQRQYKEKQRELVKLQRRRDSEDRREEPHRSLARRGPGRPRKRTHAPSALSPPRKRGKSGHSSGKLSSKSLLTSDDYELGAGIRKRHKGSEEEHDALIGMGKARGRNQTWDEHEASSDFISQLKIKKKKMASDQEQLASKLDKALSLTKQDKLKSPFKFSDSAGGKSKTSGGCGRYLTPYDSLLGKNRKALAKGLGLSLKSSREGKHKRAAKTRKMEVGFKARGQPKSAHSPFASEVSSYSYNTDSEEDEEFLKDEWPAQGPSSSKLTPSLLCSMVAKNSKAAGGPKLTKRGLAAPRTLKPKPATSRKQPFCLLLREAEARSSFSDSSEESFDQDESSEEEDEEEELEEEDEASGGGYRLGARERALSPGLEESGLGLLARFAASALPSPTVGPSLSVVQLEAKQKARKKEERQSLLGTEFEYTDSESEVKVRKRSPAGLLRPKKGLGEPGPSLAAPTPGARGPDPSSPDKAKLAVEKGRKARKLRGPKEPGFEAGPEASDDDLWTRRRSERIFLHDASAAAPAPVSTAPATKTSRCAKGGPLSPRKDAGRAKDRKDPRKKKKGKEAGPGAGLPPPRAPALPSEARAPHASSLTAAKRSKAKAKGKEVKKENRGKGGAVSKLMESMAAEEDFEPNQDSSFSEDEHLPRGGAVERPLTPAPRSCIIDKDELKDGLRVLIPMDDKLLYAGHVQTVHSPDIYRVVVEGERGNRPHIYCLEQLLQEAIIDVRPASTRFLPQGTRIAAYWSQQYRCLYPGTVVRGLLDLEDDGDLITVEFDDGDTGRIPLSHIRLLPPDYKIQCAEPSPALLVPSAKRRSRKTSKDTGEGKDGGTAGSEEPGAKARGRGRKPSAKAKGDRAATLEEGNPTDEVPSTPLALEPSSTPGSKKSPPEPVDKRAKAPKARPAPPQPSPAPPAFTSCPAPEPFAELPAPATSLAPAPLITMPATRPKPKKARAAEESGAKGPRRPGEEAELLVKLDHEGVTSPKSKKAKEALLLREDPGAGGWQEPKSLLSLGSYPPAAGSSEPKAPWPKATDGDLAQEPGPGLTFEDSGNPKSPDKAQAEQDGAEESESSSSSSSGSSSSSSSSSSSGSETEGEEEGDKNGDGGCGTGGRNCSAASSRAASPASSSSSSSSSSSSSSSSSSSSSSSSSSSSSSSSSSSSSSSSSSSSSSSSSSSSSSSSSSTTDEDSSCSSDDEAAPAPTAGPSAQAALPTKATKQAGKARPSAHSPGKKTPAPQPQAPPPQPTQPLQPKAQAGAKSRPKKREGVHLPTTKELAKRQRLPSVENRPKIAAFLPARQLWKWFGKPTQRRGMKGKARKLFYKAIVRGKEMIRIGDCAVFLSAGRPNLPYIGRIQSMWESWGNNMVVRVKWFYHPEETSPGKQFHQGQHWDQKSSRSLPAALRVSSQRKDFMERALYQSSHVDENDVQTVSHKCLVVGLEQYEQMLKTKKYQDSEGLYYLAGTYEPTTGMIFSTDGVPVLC
UniProt Q92547, whole entry, looked up: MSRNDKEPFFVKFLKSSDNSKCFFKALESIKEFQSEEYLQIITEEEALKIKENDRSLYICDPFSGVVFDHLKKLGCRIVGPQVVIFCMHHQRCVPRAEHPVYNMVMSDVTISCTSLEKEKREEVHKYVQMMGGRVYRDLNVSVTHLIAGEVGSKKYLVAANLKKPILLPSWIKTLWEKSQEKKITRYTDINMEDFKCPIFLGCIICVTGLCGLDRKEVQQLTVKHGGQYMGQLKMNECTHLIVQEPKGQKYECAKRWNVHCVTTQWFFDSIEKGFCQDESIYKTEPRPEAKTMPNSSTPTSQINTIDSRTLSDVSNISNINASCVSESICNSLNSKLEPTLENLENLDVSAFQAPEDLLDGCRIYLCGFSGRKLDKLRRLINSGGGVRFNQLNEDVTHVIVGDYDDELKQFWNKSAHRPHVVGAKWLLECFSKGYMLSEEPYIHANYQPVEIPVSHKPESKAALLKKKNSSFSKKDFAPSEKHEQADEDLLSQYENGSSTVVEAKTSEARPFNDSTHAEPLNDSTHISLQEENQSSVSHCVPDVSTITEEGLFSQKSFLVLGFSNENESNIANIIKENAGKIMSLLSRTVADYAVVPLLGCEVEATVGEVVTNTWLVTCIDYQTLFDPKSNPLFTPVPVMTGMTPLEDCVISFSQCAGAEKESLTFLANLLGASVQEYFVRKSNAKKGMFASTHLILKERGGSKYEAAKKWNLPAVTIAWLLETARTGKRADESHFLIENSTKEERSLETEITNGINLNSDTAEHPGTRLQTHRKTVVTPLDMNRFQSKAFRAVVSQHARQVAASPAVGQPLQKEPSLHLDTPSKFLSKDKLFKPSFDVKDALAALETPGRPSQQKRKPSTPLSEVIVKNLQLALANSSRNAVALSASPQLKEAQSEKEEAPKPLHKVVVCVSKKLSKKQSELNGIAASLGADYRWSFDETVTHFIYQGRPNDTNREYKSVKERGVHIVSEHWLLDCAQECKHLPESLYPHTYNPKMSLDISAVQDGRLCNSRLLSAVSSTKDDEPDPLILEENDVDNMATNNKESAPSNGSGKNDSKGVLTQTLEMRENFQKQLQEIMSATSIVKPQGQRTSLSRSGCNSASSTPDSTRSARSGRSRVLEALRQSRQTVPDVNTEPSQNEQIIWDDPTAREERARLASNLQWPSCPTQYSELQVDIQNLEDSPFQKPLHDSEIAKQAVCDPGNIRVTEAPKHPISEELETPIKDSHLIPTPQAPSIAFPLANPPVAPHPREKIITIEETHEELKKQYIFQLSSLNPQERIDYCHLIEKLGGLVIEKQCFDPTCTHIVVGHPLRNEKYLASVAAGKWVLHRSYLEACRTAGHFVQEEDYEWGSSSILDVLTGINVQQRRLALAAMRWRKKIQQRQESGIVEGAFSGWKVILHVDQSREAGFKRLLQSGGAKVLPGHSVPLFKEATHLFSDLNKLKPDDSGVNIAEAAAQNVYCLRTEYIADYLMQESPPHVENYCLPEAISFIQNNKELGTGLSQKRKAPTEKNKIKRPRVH
UniProt Q9NQ34: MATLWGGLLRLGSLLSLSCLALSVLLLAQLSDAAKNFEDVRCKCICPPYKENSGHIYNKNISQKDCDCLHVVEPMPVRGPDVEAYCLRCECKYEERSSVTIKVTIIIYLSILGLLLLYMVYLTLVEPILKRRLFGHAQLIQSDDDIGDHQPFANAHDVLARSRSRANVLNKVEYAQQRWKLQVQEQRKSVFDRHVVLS
UniProt Q9H3N1: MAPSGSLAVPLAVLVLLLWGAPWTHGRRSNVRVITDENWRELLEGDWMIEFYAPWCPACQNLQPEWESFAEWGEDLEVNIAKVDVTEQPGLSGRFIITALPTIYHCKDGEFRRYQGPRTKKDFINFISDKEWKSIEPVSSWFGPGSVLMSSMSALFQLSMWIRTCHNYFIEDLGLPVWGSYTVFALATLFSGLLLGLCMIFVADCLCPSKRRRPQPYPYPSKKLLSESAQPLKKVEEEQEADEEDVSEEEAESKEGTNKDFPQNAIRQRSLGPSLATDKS

Some of the results follow.

Compound in this experiment: CC1Cc2ccccc2N1C(=O)C1CCCN(C1)C(=O)CCl (mixture of isomers) [TRIM25 ligand 11 (diastereomer mixture)]
The experiment is described as follows: probe-labelled cysteine peptide fold change vs DMSO (competition) (log2 fold change); higher = less target engagement (more negative = stronger competition). The settings on record: THP-1, incubation time: 4 h.
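Also: competitive chemoproteomic profiling in live THP-1 cells with an iodoacetamide desthiobiotin (IA-DTB) probe, comparing probe-labelled peptide intensities in compound-treated cells against DMSO-treated controls.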

In the case of “TOR2A_Q5JU69_271_HCVLNELAQLGLEPR (UniProt Q5JU69)”, the “probe-labelled cysteine peptide fold change” value runs as follows: (10 µM) 0.1; (50 µM) 0.187.

As for “TLN1_Q9Y490_1939_AGALQCSPSDAYTK (UniProt Q9Y490)”, the “probe-labelled cysteine peptide fold change” value by setting is: (10 µM) 0.0307; (50 µM) -0.0498.

Consider “TOP2B_Q02880_476_HSLECTLILTEGDSAK (UniProt Q02880)”, for which the “probe-labelled cysteine peptide fold change” value (10 µM) is -0.00291 and the “probe-labelled cysteine peptide fold change” value (50 µM) worked out at 0.112.

“TMEM206_Q9H813_128_EVDRYDAPGIALYPGQAQLLSCK (UniProt Q9H813)”: the “probe-labelled cysteine peptide fold change” value runs as follows: (10 µM) -0.0346; (50 µM) -0.376.

As for “TMEM87B_Q96K49_121_LSVDEDFCHYLK (UniProt Q96K49)”, the “probe-labelled cysteine peptide fold change” value is -0.0996 (10 µM) and -0.152 (50 µM).

For the target “TNRC18_O15417_2921_CLVVGLEQYEQMLK (UniProt O15417)”, the “probe-labelled cysteine peptide fold change” value is -0.133 (10 µM) and -0.173 (50 µM).

In the case of “TMX2_Q9Y320_46_KLPPLCHGLPTQR (UniProt Q9Y320)”, the “probe-labelled cysteine peptide fold change” value by setting is: (10 µM) -0.0692; (50 µM) 0.186.

In the case of “TMEM209_Q96SK2_495_TFTSQHFVQTPNKPDVTNENVFCIYQSAINPPHYELIYQR (UniProt Q96SK2)”, the “probe-labelled cysteine peptide fold change” value reads like this: (10 µM) 0.127; (50 µM) -0.07.

Consider “TMEM259_Q4ZIN3_246_LSIPVMVVTLDPTRDQCFGDR (UniProt Q4ZIN3)”, for which the “probe-labelled cysteine peptide fold change” value (10 µM) was found to be 0.0157 and the “probe-labelled cysteine peptide fold change” value (50 µM) is -0.192.

TOE1_Q96GM8_89_AVCHAAR (UniProt Q96GM8): the “probe-labelled cysteine peptide fold change” value reads like this: (10 µM) 0.0725; (50 µM) 0.158.

Regarding “TMPPE_Q6ZT21_358_ALEGCSPDHTIILLAHQPLAAK (UniProt Q6ZT21)”, the “probe-labelled cysteine peptide fold change” value was 0.028 (10 µM) and -0.085 (50 µM).

For “TNIP2_Q8NFZ5_144_AASDVLCR (UniProt Q8NFZ5)”, the “probe-labelled cysteine peptide fold change” value was -0.0729 (10 µM) and 0.106 (50 µM).

Take “TOPBP1_Q92547_238_MNECTHLIVQEPK (UniProt Q92547)”: the “probe-labelled cysteine peptide fold change” value reads like this: (10 µM) -0.0485; (50 µM) 0.0151.

For the target “TOP2B_Q02880_271_AYDLAGSCR (UniProt Q02880)”, the “probe-labelled cysteine peptide fold change” value by setting is: (10 µM) 0.2; (50 µM) 0.173.

As to “TONSL_Q96HA7_231_ECAHTMR (UniProt Q96HA7)”, the “probe-labelled cysteine peptide fold change” value is -0.264 (10 µM) and 0.184 (50 µM).

“TNPO1_Q92973_205_SHAVACVNQFIISR (UniProt Q92973)”: the “probe-labelled cysteine peptide fold change” value is, setting by setting: (10 µM) 0.0597; (50 µM) 0.189.

As to “TMEM192_Q8IY95_266_RLLALTSSDLGCQPSR (UniProt Q8IY95)”, the “probe-labelled cysteine peptide fold change” value reads like this: (10 µM) 0.0694; (50 µM) 0.126.

For “TOE1_Q96GM8_371_QVCGDSIKPEETEQEVAADETR (UniProt Q96GM8)”, the “probe-labelled cysteine peptide fold change” value is 0.0102 (10 µM) and -0.0457 (50 µM).

In the case of “TOP2B_Q02880-2_7_SGGCGAGAGVGGGNGALTWVNNAAK (UniProt Q02880)”, for the setting “10 µM”, the “probe-labelled cysteine peptide fold change” value was -0.0783.

Consider “TP53BP1_Q12888_1950_CAEALQLPVVSQEWVIQCLIVGER (UniProt Q12888)”, for which the “probe-labelled cysteine peptide fold change” value by setting is: (10 µM) 0.0956; (50 µM) -0.215.

On to “TNS3_Q68CZ2_227_ICIVIEPAQLLK (UniProt Q68CZ2)”, for which the “probe-labelled cysteine peptide fold change” value reads like this: (10 µM) -0.207; (50 µM) -0.0238.

As to “TMEM9B_Q9NQ34_86_GPDVEAYCLR (UniProt Q9NQ34)”, the “probe-labelled cysteine peptide fold change” value (10 µM) was 0.21 and the “probe-labelled cysteine peptide fold change” value (50 µM) is 0.216.

In the case of “TOPBP1_Q92547_60_SLYICDPFSGVVFDHLKK (UniProt Q92547)”, the “probe-labelled cysteine peptide fold change” value is -0.305 (10 µM) and 0.0808 (50 µM).

Turning to “TNPO3_Q9Y5L0_303_IFTELCETFLEK (UniProt Q9Y5L0)”, the “probe-labelled cysteine peptide fold change” value amounted to 0.0814 (10 µM) and 0.0392 (50 µM).

For “TNFAIP8L1_Q8WVP5_153_INHVFGHLADCDFLAALYGPAEPYR (UniProt Q8WVP5)”, the “probe-labelled cysteine peptide fold change” value (10 µM) is -0.237 and the “probe-labelled cysteine peptide fold change” value (50 µM) was -0.359.

Regarding “TNIP1_Q15025_171_LETTLSVCAEEPDHGQLFTHLGR (UniProt Q15025)”, the “probe-labelled cysteine peptide fold change” value was 0.129 (10 µM) and -0.0744 (50 µM).

On to “TLN1_Q9Y490_236+243_ACEFAGFQCQIQFGPHNEQK (UniProt Q9Y490)”, for which the “probe-labelled cysteine peptide fold change” value reads like this: (10 µM) -0.0939; (50 µM) 0.0364.

For “TNPO2_O14787_375_CSAAALDVLANVFR (UniProt O14787)”, the “probe-labelled cysteine peptide fold change” value is, setting by setting: (10 µM) 0.125; (50 µM) 0.388.

On to “TMEM94_Q12767_381_CIWGHFLR (UniProt Q12767)”, for which the “probe-labelled cysteine peptide fold change” value (10 µM) is -0.00858.

On to “TNFAIP3_P21580_158_SQEFVETGLCYDTR (UniProt P21580)”, for which the “probe-labelled cysteine peptide fold change” value (10 µM) is -0.00411 and the “probe-labelled cysteine peptide fold change” value (50 µM) was -0.0429.

As for “TNRC18_O15417_2204_GNRPHIYCLEQLLQEAIIDVRPASTR (UniProt O15417)”, the “probe-labelled cysteine peptide fold change” value is -0.102 (10 µM) and 0.166 (50 µM).

On to “TMEM9B_Q9NQ34_66_DCDCLHVVEPMPVRGPDVEAYCLR (UniProt Q9NQ34)”, for which the “probe-labelled cysteine peptide fold change” value (10 µM) stood at 0.075 and the “probe-labelled cysteine peptide fold change” value (50 µM) was -0.0614.

As for “TP53I3_Q53FA7_76_QGQYDPPPGASNILGLEASGHVAELGPGCQGHWK (UniProt Q53FA7)”, the “probe-labelled cysteine peptide fold change” value by setting is: (10 µM) -0.0917; (50 µM) -0.143.

As for “TOP2A_P11388_733_VLFTCFK (UniProt P11388)”, the “probe-labelled cysteine peptide fold change” value by setting is: (10 µM) 0.0957; (50 µM) 0.261.

Regarding “TMED3_Q9Y3Q3_144_VTALTQMESACVTIHEALK (UniProt Q9Y3Q3)”, the “probe-labelled cysteine peptide fold change” value reads like this: (10 µM) 0.283; (50 µM) 0.0887.

Regarding “TOP1_P11387_504_AGNEKEEGETADTVGCCSLR (UniProt P11387)”, the “probe-labelled cysteine peptide fold change” value is, setting by setting: (10 µM) -0.449; (50 µM) -0.228.

On to “TOP2B_Q02880_1018_LQTTLTCNSMVLFDHMGCLK (UniProt Q02880)”, for which the “probe-labelled cysteine peptide fold change” value (10 µM) came to 0.0555 and the “probe-labelled cysteine peptide fold change” value (50 µM) was -0.00569.

As to “TMX1_Q9H3N1_106_FIITALPTIYHCK (UniProt Q9H3N1)”, the “probe-labelled cysteine peptide fold change” value is -0.0411 (10 µM) and -0.0895 (50 µM).
